Experimental data as given in article PMC3538754.

Biological target: E-cadherin (human (endogenous in MCF7))
Assay: co-IP; MCF7 cells (control; HRG-β1 16 h; HRG-β1 16 h then SB202190 for the indicated time) lysed in 10 mM Tris-HCl pH 7.5, 150 mM NaCl, 5 mM EDTA, 1 mM PMSF; protein A sepharose bound to antibodies, washed three times with lysis buffer; detected by Western blotting

binding: binds
B1: p120 catenin (protein, UniProt O60716 1-968)
chain: MDDSEVESTASILASVKEQEAQFEKLTRALEEERRHVSAQLERVRVSPQDANPLMANGTLTRRHQNGRFVGDADLERQKFSDLKLNGPQDHSHLLYSTIPRMQEPGQIVETYTEEDPEGAMSVVSVETSDDGTTRRTETTVKKVVKTVTTRTVQPVAMGPDGLPVDASSVSNNYIQTLGRDFRKNGNGGPGPYVGQAGTATLPRNFHYPPDGYSRHYEDGYPGGSDNYGSLSRVTRIEERYRPSMEGYRAPSRQDVYGPQPQVRVGGSSVDLHRFHPEPYGLEDDQRSMGYDDLDYGMMSDYGTARRTGTPSDPRRRLRSYEDMIGEEVPSDQYYWAPLAQHERGSLASLDSLRKGGPPPPNWRQPELPEVIAMLGFRLDAVKSNAAAYLQHLCYRNDKVKTDVRKLKGIPVLVGLLDHPKKEVHLGACGALKNISFGRDQDNKIAIKNCDGVPALVRLLRKARDMDLTEVITGTLWNLSSHDSIKMEIVDHALHALTDEVIIPHSGWEREPNEDCKPRHIEWESVLTNTAGCLRNVSSERSEARRKLRECDGLVDALIFIVQAEIGQKDSDSKLVENCVCLLRNLSYQVHREIPQAERYQEAAPNVANNTGPHAASCFGAKKGKDEWFSRGKKPIEDPANDTVDFPKRTSPARGYELLFQPEVVRIYISLLKESKTPAILEASAGAIQNLCAGRWTYGRYIRSALRQEKALSAIADLLTNEHERVVKAASGALRNLAVDARNKELIGKHAIPNLVKNLPGGQQNSSWNFSEDTVISILNTINEVIAENLEAAKKLRETQGIEKLVLINKSGNRSEKEVRAAALVLQTIWGYKELRKPLEKEGWKKSDFQVNLNNASRSQSSHSYDDSTLPLIDRNQKSDKKPDREEIQMSNMGSNTKSLDNNYSTPNERGDHNRTLDRSGDLGDMEPLKGTTPLMQDEGQESLEEELDVLVLDDEGGQVSYPSMQKI

No constants are given. Whether binding was seen depends on the method and setting. In cells and extracts the contact can be indirect. Binding calls can cover weak binding; strength is not graded here.
